According to patent US5783597A, “2,5-disubstituted thiophenes: inhibitors of 5-lipoxygenase and inducible cyclooxygenase (COX-2) enzymes, composition and use” (Ortho Pharmaceutical Corporation, priority 1997, dated 1998):
The name of at least one read-out is uncertain.

How the values were obtained:
5-lipoxygenase (5-LO) [1] = biological target: T1, 5-lipoxygenase (5-LO) (Rattus norvegicus, UniProt P12527); assay: RBL-1 cell 5-lipoxygenase and cyclooxygenase - Homogenate (Procedure I); assay type: biochemical; details: RBL-1 homogenate supernatant, 5-HETE; read-out: Procedure I (5-LO) Homog. IC50
T1 construct: endogenous in cells; host or cells: intact RBL-1 (rat basophilic leukemia) cells, stimulated with calcium ionophore A23187
T1 sequence (P12527 1-673): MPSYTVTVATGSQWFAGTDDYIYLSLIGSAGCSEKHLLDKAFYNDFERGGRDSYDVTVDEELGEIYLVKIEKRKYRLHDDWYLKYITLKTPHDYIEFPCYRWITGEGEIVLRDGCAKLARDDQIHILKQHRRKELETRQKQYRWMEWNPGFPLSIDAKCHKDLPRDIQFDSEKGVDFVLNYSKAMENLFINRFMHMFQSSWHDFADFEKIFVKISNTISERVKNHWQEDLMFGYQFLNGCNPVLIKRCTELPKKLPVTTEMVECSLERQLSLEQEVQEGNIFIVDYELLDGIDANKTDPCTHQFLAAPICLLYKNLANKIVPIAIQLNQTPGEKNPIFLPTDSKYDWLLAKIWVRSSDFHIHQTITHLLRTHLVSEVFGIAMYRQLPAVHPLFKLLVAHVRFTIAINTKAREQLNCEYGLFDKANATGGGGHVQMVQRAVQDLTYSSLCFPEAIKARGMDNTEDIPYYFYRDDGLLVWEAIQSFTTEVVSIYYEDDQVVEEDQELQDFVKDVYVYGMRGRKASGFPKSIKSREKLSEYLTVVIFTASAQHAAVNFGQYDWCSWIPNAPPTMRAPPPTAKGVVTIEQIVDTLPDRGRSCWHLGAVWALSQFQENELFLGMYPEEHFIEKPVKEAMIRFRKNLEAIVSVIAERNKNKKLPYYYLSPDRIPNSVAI
Description: RBL-1 cell 5-lipoxygenase and cyclooxugenase - Homogenate
Rat basophilic leukemia cells (RBL-1; 5×10^7 viable cells/mL) were disrupted by homogenization on ice (four 20 sec bursts) with a Brinkman polytron. […] The homogenate was then centrifuged at 9,220×g for 48 minutes at 4° C. The pellet was discarded and the supernatant was saved as the source of enzymes. The supernatant was pre-incubated for five minutes at 37° C. in the presence of 2 mM of CaCl2 and compound or vehicle (1% DMSO). The conversion of AA into products by CO and LO was initiated by adding 10 μL (50 μCi) of 1-^14 C-AA to each tube and incubated at 37° C. for 20 minutes. The reaction was stopped by adjusting the pH of each sample to 3 to 3.5 with 2M formic acid. Samples were extracted with three volumes of chloroform to isolate the products of 5-LO formed during the reaction. Fractions were dried under nitrogen, then resuspended in 40 μL of chloroform and spotted onto silica gel HL plates. The plates were developed in A-9 solvent. The dried plates were analyzed using a Bioscan Imaging TLC scanner to determine the percentage of radiolabelled M converted to 5-HETE (LO product) and PGD2 (CO product) in each sample.

5-lipoxygenase (5-LO) [2] = biological target: T1, 5-lipoxygenase (5-LO); assay: RBL-1 cell 5-lipoxygenase and cyclooxygenase - Whole cells (Procedure II); assay type: cell-based; details: intact RBL-1 cells, 5-HETE; read-out: Procedure II (5-LO) Wh Cell IC50
Description: RBL-1 Cell 5-Lipoxygenase and cyclooxygenase - Whole cells
The ability to inhibit 5-LO and CO in intact RBL-1 cells was also evaluated. […] Cells were collected by centrifugation, washed once in HBSS, and resuspended at a concentration of 1×10^5 cells/mL. Cells were incubated in the presence of vehicle or drug then centrifuged at 800×g for 10 minutes at 4° C. The supernatant was removed by aspiration and the cells were resuspended in 0.5 mL of HBSS. […] The conversion of M to 5-LO products was initiated by the addition of 10 μL (50 uCi) of 1-^14 C-AA. Products were isolated by acidification and extraction, followed by thin layer chromatography analysis as described above. Radioactive areas corresponding to authentic 5-LO (5-HETE) and CO (PGD2) products were quantitated by the Bioscan 2000 Imaging System.

## CS(=O)(=O)Nc1ccc(Oc2cccc3c2CCCC3)s1 [Example 23]
5-lipoxygenase (5-LO) [1]
  IC50: 50 nM
5-lipoxygenase (5-LO) [2]
  IC50: 500 nM
